According to patent US7125849B2, “Peptide-based angiogenesis inhibitors and methods of use thereof” (The Scripps Research Institute, priority 2003, dated 2006):
Part of at least one peptide drawing is inferred or uncertain, most often the ends. No end group written: not given here.

Molecular target: T1, Nck (Homo sapiens, UniProt P16333)
T1 construct: endogenous in cells; host or cells: human endothelial cells (cell type for this assay not further specified)
Assay: Affinity chromatography of endothelial cell extracts on peptide-agarose, western blot with anti-Nck
Type: binding
Settings: detergent extracts of human endothelial cells
Experimental: Affinity Chromatography. PRO or control peptides containing an N-terminal cysteine were dissolved in about 1 ml of coupling buffer (50 mM tris pH 8.0, 5 mM EDTA) and about 0.5 ml at about 3 mg/ml peptide added to about 2 ml of activated thiol-Sepharose (Pharmacia). Samples were incubated at a temperature of about 4° C. overnight with 1% β-mercaptoethanol added to block unreacted sites. Beads were rinsed and stored at a temperature of about 4° C. Endothelial cell cultures in 15 cm dishes were extracted in about 1.0 ml of cold (about 4° C.), lysis buffer (20 mM pH 7.4 sodium phosphate, 100 mM NaCl, 1% Triton X-100, 10 mM NaF, 2 mM EDTA, 1 mM sodium orthovanadate, 1 mM PMSF, 10 μg/ml each of leupeptin and aprotinin). The extracts were centrifuged for about 10 minutes at top speed in a microfuge and the supernatants were then removed. A 0.5 ml sample of each extract was incubated with about 10 μl of packed beads for about 1 hour, with rotation at a temperature of about 4° C. The beads were rinsed with lysis buffer (about 4×0.5 ml) and dissolved in SDS sample buffer (about 0.04 ml). Samples were analyzed by SDS PAGE on 10% gels and immunoblotting with anti-NCK (Santa Cruz) and HRP-protein A as secondary, and then were developed and detected using enhanced chemiluminescence (ECL kit, Amersham). […]

YGRKKRRQRRRGKPPAPPMRNTSTM [SEQ ID NO: 4]
Binding of Nck from endothelial cell lysates: bound Nck from the lysates
